# Data reported in doi:10.1101/2019.12.12.873810.
# These are yes or no findings as the source states them, for the method shown. In cells and extracts the contact can be indirect. Some binding calls cover weakened binding; strength is not graded here.
# T1: dVAP-A (Drosophila (endogenous in fly heads)) (UniProt Q9W4N8)
# T1 sequence: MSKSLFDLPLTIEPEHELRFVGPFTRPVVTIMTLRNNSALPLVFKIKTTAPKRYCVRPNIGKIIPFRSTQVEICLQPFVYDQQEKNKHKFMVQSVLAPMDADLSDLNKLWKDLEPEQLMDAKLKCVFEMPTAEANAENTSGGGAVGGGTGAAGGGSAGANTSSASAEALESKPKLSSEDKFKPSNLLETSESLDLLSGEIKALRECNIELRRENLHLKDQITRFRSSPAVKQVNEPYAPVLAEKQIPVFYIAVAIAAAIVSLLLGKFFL
# B1: Retinal Degeneration B (RDGB), wild type (protein, UniProt P43125 1-1259)
# chain: MLIKEYRIPLPLTVEEYRIAQLYMIAKKSREESHGEGSGVEIIINEPYKDGPGGNGQYTKKIYHVGNHLPGWIKSLLPKSALTVEEEAWNAYPYTRTRYTCPFVEKFSLDIETYYYPDNGYQDNVFQLSGSDLRNRIVDVIDIVKDQLWGGDYVKEEDPKHFVSDKTGRGPLAEDWLEEYWREVKGKKQPTPRNMSLMTAYKICRVEFRYWGMQTKLEKFIHDVALRKMMLRAHRQAWAWQDEWFGLTIEDIRELERQTQLALAKKMGGGEECSDDSVSEPYVSTAATAASTTGSERKKSAPAVPPIVTQQPPSAEASSDEEGEEEEDDDEDENDAIGTGVDLSANQGGSAQRSRSQSIQMAQKGKFGSKGALHSPVGSAHSFDLQVANWRMERLEVDSKSNSDEEFFDCLDTNETNSLAKWSSLELLGEGDDSPPPHGGPSSAASVGGRGNSRQEDSIFNQDFLMRVASERGNKRQLRSSASVDRSHDSSPPGSPSTPSCPTTILILVVHAGSVLDAASELTAKKSDVTTFRGSFEAVMRQHYPSLLTHVTIKMVPCPSICTDALGILSSLSPYSFDASPSAADIPNIADVPIGAIPLLSVASPEFHETVNKTVAAANIVYHEFLKSEEGHGFSGQIVMLGDSMGSLLAYEALCRSNGSQPGTASGASNSGGDAATNINTHNPLSPRNSRLDDDERFIEADLDAKRLLVAPSPRRRRSSSSSDSRATKLDFEVCDFFMFGSPLSVVLAARKLHDAKAALPRPNCHQVYNLFHPTDPIASRLEPLLSARFSILAPVNVPRYAKYPLGNGQPLHLLEVIQSHPQHFNDGNNLLAGRRLSDASMQSTISGLIENVSLSTIHALQNKWWGTKRLDYALYCPEGLSNFPAHALPHLFHASYWESPDVIAFILRQIGKFEGIPFVGSNDDKDNASFHPGQPREKWIKKRTSVKLKNVAANHRANDVIVQEGREQRLNARFMYGPLDMITLHGEKVDVHIMKDPPAGEWTFLSTEVTDKNGRISYSIPDQVSLGYGIYPVKMVVRGDHTSVDCYMAVVPPLTECVVFSIDGSFTASMSVTGRDPKVRAGAVDVCRHWQELGYLLIYITGRPDMQQQRVVSWLSQHNFPHGLISFADGLSTDPLGHKTAYLNNLVQNHGISITAAYGSSKDISVYTNVGMRTDQIFIVGKVGKKLQSNATVLSDGYAAHLAGLQAVGGSRPAKGNARMVIPRGCFNLPGQTANPRRRRYLERKTVSSCCLMVFQTT
# B2: RDGB^(USR1-LNS2)Δ (domain or fragment, UniProt P43125 1-472)
# chain: MLIKEYRIPLPLTVEEYRIAQLYMIAKKSREESHGEGSGVEIIINEPYKDGPGGNGQYTKKIYHVGNHLPGWIKSLLPKSALTVEEEAWNAYPYTRTRYTCPFVEKFSLDIETYYYPDNGYQDNVFQLSGSDLRNRIVDVIDIVKDQLWGGDYVKEEDPKHFVSDKTGRGPLAEDWLEEYWREVKGKKQPTPRNMSLMTAYKICRVEFRYWGMQTKLEKFIHDVALRKMMLRAHRQAWAWQDEWFGLTIEDIRELERQTQLALAKKMGGGEECSDDSVSEPYVSTAATAASTTGSERKKSAPAVPPIVTQQPPSAEASSDEEGEEEEDDDEDENDAIGTGVDLSANQGGSAQRSRSQSIQMAQKGKFGSKGALHSPVGSAHSFDLQVANWRMERLEVDSKSNSDEEFFDCLDTNETNSLAKWSSLELLGEGDDSPPPHGGPSSAASVGGRGNSRQEDSIFNQDFLMRVASER
# B3: RDGB^LNS2Δ (domain or fragment, UniProt P43125 1-1000)
# chain: MLIKEYRIPLPLTVEEYRIAQLYMIAKKSREESHGEGSGVEIIINEPYKDGPGGNGQYTKKIYHVGNHLPGWIKSLLPKSALTVEEEAWNAYPYTRTRYTCPFVEKFSLDIETYYYPDNGYQDNVFQLSGSDLRNRIVDVIDIVKDQLWGGDYVKEEDPKHFVSDKTGRGPLAEDWLEEYWREVKGKKQPTPRNMSLMTAYKICRVEFRYWGMQTKLEKFIHDVALRKMMLRAHRQAWAWQDEWFGLTIEDIRELERQTQLALAKKMGGGEECSDDSVSEPYVSTAATAASTTGSERKKSAPAVPPIVTQQPPSAEASSDEEGEEEEDDDEDENDAIGTGVDLSANQGGSAQRSRSQSIQMAQKGKFGSKGALHSPVGSAHSFDLQVANWRMERLEVDSKSNSDEEFFDCLDTNETNSLAKWSSLELLGEGDDSPPPHGGPSSAASVGGRGNSRQEDSIFNQDFLMRVASERGNKRQLRSSASVDRSHDSSPPGSPSTPSCPTTILILVVHAGSVLDAASELTAKKSDVTTFRGSFEAVMRQHYPSLLTHVTIKMVPCPSICTDALGILSSLSPYSFDASPSAADIPNIADVPIGAIPLLSVASPEFHETVNKTVAAANIVYHEFLKSEEGHGFSGQIVMLGDSMGSLLAYEALCRSNGSQPGTASGASNSGGDAATNINTHNPLSPRNSRLDDDERFIEADLDAKRLLVAPSPRRRRSSSSSDSRATKLDFEVCDFFMFGSPLSVVLAARKLHDAKAALPRPNCHQVYNLFHPTDPIASRLEPLLSARFSILAPVNVPRYAKYPLGNGQPLHLLEVIQSHPQHFNDGNNLLAGRRLSDASMQSTISGLIENVSLSTIHALQNKWWGTKRLDYALYCPEGLSNFPAHALPHLFHASYWESPDVIAFILRQIGKFEGIPFVGSNDDKDNASFHPGQPREKWIKKRTSVKLKNVAANHRANDVIVQEGREQRLNARFMYGPLDMITLHGEKVDVHIMKDPPA
# B4: RDGB^(DDHD-LNS2)Δ (domain or fragment, UniProt P43125 1-655)
# chain: MLIKEYRIPLPLTVEEYRIAQLYMIAKKSREESHGEGSGVEIIINEPYKDGPGGNGQYTKKIYHVGNHLPGWIKSLLPKSALTVEEEAWNAYPYTRTRYTCPFVEKFSLDIETYYYPDNGYQDNVFQLSGSDLRNRIVDVIDIVKDQLWGGDYVKEEDPKHFVSDKTGRGPLAEDWLEEYWREVKGKKQPTPRNMSLMTAYKICRVEFRYWGMQTKLEKFIHDVALRKMMLRAHRQAWAWQDEWFGLTIEDIRELERQTQLALAKKMGGGEECSDDSVSEPYVSTAATAASTTGSERKKSAPAVPPIVTQQPPSAEASSDEEGEEEEDDDEDENDAIGTGVDLSANQGGSAQRSRSQSIQMAQKGKFGSKGALHSPVGSAHSFDLQVANWRMERLEVDSKSNSDEEFFDCLDTNETNSLAKWSSLELLGEGDDSPPPHGGPSSAASVGGRGNSRQEDSIFNQDFLMRVASERGNKRQLRSSASVDRSHDSSPPGSPSTPSCPTTILILVVHAGSVLDAASELTAKKSDVTTFRGSFEAVMRQHYPSLLTHVTIKMVPCPSICTDALGILSSLSPYSFDASPSAADIPNIADVPIGAIPLLSVASPEFHETVNKTVAAANIVYHEFLKSEEGHGFSGQIVMLGDSMGSLLAYEALC
# Biological target: T1, dVAP-A (Drosophila (endogenous in fly heads))
# Test: co-IP
row,binding,Binder
1,binds,B1
2,no binding,B2
3,binds,B3
4,binds,B4
